Source: PubChem BioAssay AID504764 (Drosophila RNAi Screening Center, 2011)
The deposit covers about 22,000 reagents; below is a random part of those with a known target gene and a result. Of all reagents, 403 (1.9%) are marked active. 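Unnormalised raw counts per well; ratio z-scores behind the hit calls and whether each hit raises or lowers signal are not deposited.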 Unmarked entries are inactive. Not given: the amount of reagent.

- Assay: 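Genome-wide screen for regulators of Notch-driven gene expression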 (primary screen)
- System: Drosophila Kc167 cells
- Knock-down reagent: long dsRNA against Drosophila genes
- Timing: about 5 days (4 days dsRNA, then 24 h after transfection)
- Challenge: transfection of constitutively active membrane-tethered Notch lacking the extracellular domain, read 24 h later
- Measured: 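Light from a Notch-responsive E(spl)m3 luciferase reporter under active Notch, with control-promoter and no-Notch reporter wells to normalise; raw counts from paired wells a and b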
- Scale: induced reporter light, run 1, well a and induced reporter light, run 1, well b: higher = more light from the Notch target reporter with active Notch; control promoter light, run 1, well a and control promoter light, run 1, well b: higher = more light from the viral control promoter (cell number, transfection, viability); uninduced reporter light, run 1, well a: higher = more light from the Notch target reporter without active Notch
- Rule for the call: 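Hit if the duplicate-averaged log2 ratio of induced to control-promoter light gives a plate-wise z beyond ±2, or induced to uninduced beyond ±1.8; weak-control or discordant-duplicate wells dropped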
- Meaning of the calls: active = modifier hit (raised or lowered Notch signal); inactive = not a hit

CG6574 [DRSC16070] scored induced reporter light, run 1, well a = 35185; induced reporter light, run 1, well b = 37225; control promoter light, run 1, well a = 42175; control promoter light, run 1, well b = 29130; uninduced reporter light, run 1, well a = 1980. Against l(3)mbn [DRSC08793] the deposit lists induced reporter light, run 1, well a = 2.31e5; induced reporter light, run 1, well b = 2.09e5; control promoter light, run 1, well a = 2.44e5; control promoter light, run 1, well b = 2.55e5; uninduced reporter light, run 1, well a = 15555. With knock-down of E(spl)malpha-BFM [DRSC16994] the results were induced reporter light, run 1, well a = 71405; induced reporter light, run 1, well b = 92105; control promoter light, run 1, well a = 1.16e5; control promoter light, run 1, well b = 1.20e5; uninduced reporter light, run 1, well a = 10100. Knock-down of CG14118 [DRSC10122] resulted in: induced reporter light, run 1, well a = 1.52e5; induced reporter light, run 1, well b = 1.11e5; control promoter light, run 1, well a = 1.87e5; control promoter light, run 1, well b = 1.49e5; uninduced reporter light, run 1, well a = 7388. Knock-down of Hil [DRSC05989] resulted in: induced reporter light, run 1, well a = 62905; induced reporter light, run 1, well b = 79640; control promoter light, run 1, well a = 1.08e5; control promoter light, run 1, well b = 94035; uninduced reporter light, run 1, well a = 5560. Against Hil [DRSC06395] the deposit lists induced reporter light, run 1, well a = 1.47e5; induced reporter light, run 1, well b = 1.40e5; control promoter light, run 1, well a = 2.33e5; control promoter light, run 1, well b = 2.73e5; uninduced reporter light, run 1, well a = 8595.

Against Dus4 [DRSC02066], the values are induced reporter light, run 1, well a = 2.10e5; induced reporter light, run 1, well b = 2.08e5; control promoter light, run 1, well a = 1.92e5; control promoter light, run 1, well b = 1.79e5; uninduced reporter light, run 1, well a = 17675. blo [DRSC05937] showed induced reporter light, run 1, well a = 56555 (active); induced reporter light, run 1, well b = 65350; control promoter light, run 1, well a = 39140; control promoter light, run 1, well b = 34255; uninduced reporter light, run 1, well a = 4895. Knock-down of CG7903 [DRSC16338] came out at: induced reporter light, run 1, well a = 1.24e5; induced reporter light, run 1, well b = 1.12e5; control promoter light, run 1, well a = 1.72e5; control promoter light, run 1, well b = 1.50e5; uninduced reporter light, run 1, well a = 9295. Silencing of Teh2 [DRSC08458] gave: induced reporter light, run 1, well a = 1.59e5; induced reporter light, run 1, well b = 1.24e5; control promoter light, run 1, well a = 2.08e5; control promoter light, run 1, well b = 1.52e5; uninduced reporter light, run 1, well a = 7405. Against CalpA [DRSC07352], the values are induced reporter light, run 1, well a = 1.24e5; induced reporter light, run 1, well b = 89555; control promoter light, run 1, well a = 1.19e5; control promoter light, run 1, well b = 1.10e5; uninduced reporter light, run 1, well a = 8200. For boss [DRSC16916], the entry reads induced reporter light, run 1, well a = 1.51e5; induced reporter light, run 1, well b = 1.56e5; control promoter light, run 1, well a = 1.70e5; control promoter light, run 1, well b = 1.74e5; uninduced reporter light, run 1, well a = 11620.

CG12723 [DRSC19499] gave induced reporter light, run 1, well a = 1.52e5; induced reporter light, run 1, well b = 1.43e5; control promoter light, run 1, well a = 1.99e5; control promoter light, run 1, well b = 1.89e5; uninduced reporter light, run 1, well a = 9545. After knock-down of DIP-epsilon [DRSC00932], the record shows induced reporter light, run 1, well a = 68645; induced reporter light, run 1, well b = 69950; control promoter light, run 1, well a = 59170; control promoter light, run 1, well b = 89745; uninduced reporter light, run 1, well a = 6005. With knock-down of DIP-epsilon [DRSC02313] the results were induced reporter light, run 1, well a = 1.81e5; induced reporter light, run 1, well b = 1.80e5; control promoter light, run 1, well a = 2.35e5; control promoter light, run 1, well b = 2.40e5; uninduced reporter light, run 1, well a = 12210. Tsp42Eq [DRSC06180] gave induced reporter light, run 1, well a = 2.27e5; induced reporter light, run 1, well b = 2.19e5; control promoter light, run 1, well a = 3.53e5; control promoter light, run 1, well b = 2.61e5; uninduced reporter light, run 1, well a = 19485. After knock-down of CG5276 [DRSC15759], the record shows induced reporter light, run 1, well a = 1.17e5; induced reporter light, run 1, well b = 1.07e5; control promoter light, run 1, well a = 90545; control promoter light, run 1, well b = 86385; uninduced reporter light, run 1, well a = 8330. Against CG11790 [DRSC14390], the values are induced reporter light, run 1, well a = 915 (active); induced reporter light, run 1, well b = 1538; control promoter light, run 1, well a = 1975; control promoter light, run 1, well b = 2350; uninduced reporter light, run 1, well a = 90.

CG11382 [DRSC18624] showed induced reporter light, run 1, well a = 1.17e5; induced reporter light, run 1, well b = 1.15e5; control promoter light, run 1, well a = 2.02e5; control promoter light, run 1, well b = 2.42e5; uninduced reporter light, run 1, well a = 9520. For Csl4 [DRSC02944], the values are induced reporter light, run 1, well a = 1.25e5; induced reporter light, run 1, well b = 1.76e5; control promoter light, run 1, well a = 95010; control promoter light, run 1, well b = 1.15e5; uninduced reporter light, run 1, well a = 17745. Against CG16935 [DRSC06638], the values are induced reporter light, run 1, well a = 81870; induced reporter light, run 1, well b = 70680; control promoter light, run 1, well a = 1.03e5; control promoter light, run 1, well b = 1.11e5; uninduced reporter light, run 1, well a = 7545. With knock-down of Zw10 [DRSC18793], the screen gave induced reporter light, run 1, well a = 1.68e5; induced reporter light, run 1, well b = 1.75e5; control promoter light, run 1, well a = 2.23e5; control promoter light, run 1, well b = 2.27e5; uninduced reporter light, run 1, well a = 10870. Fen1 [DRSC07415] scored induced reporter light, run 1, well a = 68020; induced reporter light, run 1, well b = 92250; control promoter light, run 1, well a = 1.15e5; control promoter light, run 1, well b = 1.49e5; uninduced reporter light, run 1, well a = 8385. Vps2 [DRSC14886] scored induced reporter light, run 1, well a = 75820 (active); induced reporter light, run 1, well b = 95170; control promoter light, run 1, well a = 2.38e5; control promoter light, run 1, well b = 1.99e5; uninduced reporter light, run 1, well a = 4420.
